No constants are given. Whether binding was seen depends on the method and setting. Binding seen in cells or lysates may run through a third protein. Some entries that bind do so weakly or less than the wild type. Where a sequence is shown, tags or fusion partners need not be part of it.

Amino acid sequences for entries named in this document (tags omitted).
UniProt P05556: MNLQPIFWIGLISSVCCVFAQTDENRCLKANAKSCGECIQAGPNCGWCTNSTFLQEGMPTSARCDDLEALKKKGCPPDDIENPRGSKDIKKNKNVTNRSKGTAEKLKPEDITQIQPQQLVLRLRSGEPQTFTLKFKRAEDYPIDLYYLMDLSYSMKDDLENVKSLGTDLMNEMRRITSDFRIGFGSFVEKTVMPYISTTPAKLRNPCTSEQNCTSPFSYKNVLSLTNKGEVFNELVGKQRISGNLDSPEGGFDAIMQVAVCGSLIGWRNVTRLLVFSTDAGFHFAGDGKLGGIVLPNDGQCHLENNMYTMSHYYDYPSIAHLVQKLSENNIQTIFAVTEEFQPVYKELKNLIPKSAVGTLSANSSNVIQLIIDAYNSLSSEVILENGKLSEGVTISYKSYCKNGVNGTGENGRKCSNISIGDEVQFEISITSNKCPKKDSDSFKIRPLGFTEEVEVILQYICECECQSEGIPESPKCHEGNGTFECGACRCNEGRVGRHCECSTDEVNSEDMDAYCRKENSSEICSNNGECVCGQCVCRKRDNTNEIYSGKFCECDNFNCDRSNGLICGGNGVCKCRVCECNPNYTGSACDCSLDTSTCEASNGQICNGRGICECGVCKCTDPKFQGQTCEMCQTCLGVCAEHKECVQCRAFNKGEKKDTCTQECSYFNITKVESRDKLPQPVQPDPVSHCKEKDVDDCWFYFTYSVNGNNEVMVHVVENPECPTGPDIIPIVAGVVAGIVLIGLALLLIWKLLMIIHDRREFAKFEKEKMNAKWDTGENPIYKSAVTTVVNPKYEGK

The experiment deals with β1 integrin (human (endogenous in LN229)) (UniProt P05556). Briefly: co-IP; total LN229 cell lysates (Triton lysis buffer with protease/phosphatase inhibitors) precipitated with anti-β1 integrin or nonspecific IgG; blots probed with anti-His, anti-GFP or anti-β1.

B1: N-terminal 6×His-tagged anosmin-1 (protein, UniProt P23352 25-680)
chain: AGPGAAAARRLDESLSAGSVQRARCASRCLSLQITRISAFFQHFQNNGSLVWCQNHKQCSKCLEPCKESGDLRKHQCQSFCEPLFPKKSYECLTSCEFLKYILLVKQGDCPAPEKASGFAAACVESCEVDNECSGVKKCCSNGCGHTCQVPKTLYKGVPLKPRKELRFTELQSGQLEVKWSSKFNISIEPVIYVVQRRWNYGIHPSEDDATHWQTVAQTTDERVQLTDIRPSRWYQFRVAAVNVHGTRGFTAPSKHFRSSKDPSAPPAPANLRLANSTVNSDGSVTVTIVWDLPEEPDIPVHHYKVFWSWMVSSKSLVPTKKKRRKTTDGFQNSVILEKLQPDCDYVVELQAITYWGQTRLKSAKVSLHFTSTHATNNKEQLVKTRKGGIQTQLPFQRRRPTRPLEVGAPFYQDGQLQVKVYWKKTEDPTVNRYHVRWFPEACAHNRTTGSEASSGMTHENYIILQDLSFSCKYKVTVQPIRPKSHSKAEAVFFTTPPCSALKGKSHKPVGCLGEAGHVLSKVLAKPENLSASFIVQDVNITGHFSWKMAKANLYQPMTGFQVTWAEVTTESRQNSLPNSIISQSQILPSDHYVLTVPNLRPSTLYRLEVQVLTPGGEGPATIKTFRTPELPPSSAHRSHLKHRHPHHYKPSPERY
Take B1: the binding result was “binds”.

B2: C-terminal GFP-tagged anosmin-1 (protein, UniProt P23352 25-680)
chain: AGPGAAAARRLDESLSAGSVQRARCASRCLSLQITRISAFFQHFQNNGSLVWCQNHKQCSKCLEPCKESGDLRKHQCQSFCEPLFPKKSYECLTSCEFLKYILLVKQGDCPAPEKASGFAAACVESCEVDNECSGVKKCCSNGCGHTCQVPKTLYKGVPLKPRKELRFTELQSGQLEVKWSSKFNISIEPVIYVVQRRWNYGIHPSEDDATHWQTVAQTTDERVQLTDIRPSRWYQFRVAAVNVHGTRGFTAPSKHFRSSKDPSAPPAPANLRLANSTVNSDGSVTVTIVWDLPEEPDIPVHHYKVFWSWMVSSKSLVPTKKKRRKTTDGFQNSVILEKLQPDCDYVVELQAITYWGQTRLKSAKVSLHFTSTHATNNKEQLVKTRKGGIQTQLPFQRRRPTRPLEVGAPFYQDGQLQVKVYWKKTEDPTVNRYHVRWFPEACAHNRTTGSEASSGMTHENYIILQDLSFSCKYKVTVQPIRPKSHSKAEAVFFTTPPCSALKGKSHKPVGCLGEAGHVLSKVLAKPENLSASFIVQDVNITGHFSWKMAKANLYQPMTGFQVTWAEVTTESRQNSLPNSIISQSQILPSDHYVLTVPNLRPSTLYRLEVQVLTPGGEGPATIKTFRTPELPPSSAHRSHLKHRHPHHYKPSPERY
For B2, the binding entry was “binds”.

Values taken from paper PMC3869950.
